The other results are listed elsewhere or left out. Values are raw readings; no control value is given beside them.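 Primary screen: polymyxin B was added at a level permeabilizing Salmonella outer membranes while sparing inner membranes. DMSO wells, both with and without polymyxin B, established maximum growth. Plate-to-plate variation meant each plate was ranked on its own, and the lowest-OD600 compounds were selected as hits.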
System: Salmonella enterica serovar Typhimurium SL1344
Test: bacterial growth OD600 after 18 h with compound and polymyxin B; higher = more bacterial growth (less inhibition)
Conditions: 50 µM, Mueller-Hinton broth

| Structure (SMILES) | bacterial growth OD600 (polymyxin B 0.75 µg/mL) | bacterial growth OD600 (polymyxin B 1 µg/mL) |
| --- | --- | --- |
| Cc1ccccc1CN1CCCC(CO)(Cc2ccc(F)cc2)C1 (configuration not stated) | 0.725 |  |
| O=C1CCC(C(=O)N2CCCCCC2)CN1CCc1ccc(Cl)cc1 (configuration not stated) |  | 0.999 |
| CCNC(=O)N1CCC(C2CCN(Cc3cccc(F)c3F)CC2)C1 (configuration not stated) | 0.891 |  |
| Cc1oc(-c2cccc(NC(=O)CCc3cccnc3)c2)nc1CNC(=O)c1ccc2c(c1)OCCO2 | 0.816 |  |
| COc1ccc(CN2CCc3nnc(C(CC(C)C)NC(=O)c4cc(C)cc(C)c4)n3CC2)c(O)c1 (configuration not stated) | 0.621 |  |
| CC(=O)CCC(=O)N1CCCC(C(=O)Nc2ccc(-c3cccc(F)c3)cc2)C1 (configuration not stated) |  | 0.935 |
| Cc1ccccc1-n1ncc(C(C)NC(=O)CN2CCOc3ccccc3C2)c1C (configuration not stated) |  | 0.938 |
| Cc1csc(CNc2nncc(-c3cc4ccccc4o3)n2)n1 |  | 1.21 |
| CCn1cc(CN2CCC(C(Cc3ccccc3)N(CCOC)Cc3cccnc3)CC2)c(C)n1 (configuration not stated) | 0.833 |  |
| CCN1CCCC1CN(CC1CCN(CCOC)CC1)C(=O)c1cnc(C)cn1 (configuration not stated) | 0.784 |  |
| COCCN(C)C(=O)C1CCN(c2nc(C)c3cc(C)ccc3n2)CC1 | 0.816 |  |
| COc1ccc(CCN2C(=O)O[C@@H]3CN(c4cnccn4)C[C@@H]32)cc1 |  | 0.694 |
| Cc1nc(N2CCCC2C(=O)NC2CCOC(C)(C)C2)nc2cc(S(C)(=O)=O)ccc12 (configuration not stated) | 0.863 |  |
| CN(Cc1ccno1)C(=O)CC(c1ccccc1)c1ccccc1F (configuration not stated) | 0.535 |  |
| CCN(CC)C(=O)C1CCCN(Cc2nc(Cc3cccc(C(F)(F)F)c3)no2)C1 (configuration not stated) |  | 0.74 |
| O=C(NCCCn1nnc2ccccc21)c1cn(CC2CCCO2)nn1 (configuration not stated) |  | 0.932 |

Compounds from the list above with sulfur:

| Structure (SMILES) | bacterial growth OD600 (polymyxin B 0.75 µg/mL) | bacterial growth OD600 (polymyxin B 1 µg/mL) |
| --- | --- | --- |
| Cc1csc(CNc2nncc(-c3cc4ccccc4o3)n2)n1 |  | 1.21 |
| Cc1nc(N2CCCC2C(=O)NC2CCOC(C)(C)C2)nc2cc(S(C)(=O)=O)ccc12 (configuration not stated) | 0.863 |  |

Additional structures follow.

| Structure (SMILES) | bacterial growth OD600 (polymyxin B 0.75 µg/mL) | bacterial growth OD600 (polymyxin B 1 µg/mL) |
| --- | --- | --- |
| COc1cc(CC2(CCC(=O)N(C)Cc3nc(-c4ccccc4)no3)CCC(=O)N2)ccc1F (configuration not stated) | 0.801 |  |
| COC(=O)c1ccc([C@@H]2C[C@H]3CN(C)C(=O)[C@]34CCCN24)cc1 | 0.844 |  |
| CCCS(=O)(=O)N1CCC2(CCCN(CCC3CCCCC3)C2=O)C1 (configuration not stated) |  | 0.969 |
| Cc1oc(-c2ccc(C(F)(F)F)cc2)nc1CN1CCCCC1c1cccnc1 (configuration not stated) |  | 0.024 |
| C=CCC(O)(CC=C)CNC(=O)c1oc2ccc(C)cc2c1C |  | 0.79 |
| Cc1c(C(C)NC(=O)C2=CC(=O)CC(C)(C)O2)cnn1-c1ccccn1 (configuration not stated) | 0.958 |  |
| c1ccc(-c2noc3c2CN(Cc2ccoc2)CC3)cc1 | 0.805 |  |
| CCn1nc(C)c(CNC(=O)CCC2(Cc3ccc(OC)cc3F)CCC(=O)N2)c1C (configuration not stated) | 0.875 |  |
| COc1ccc(CC2(CCC(=O)NC(C)Cn3ccc4ccccc43)CCC(=O)N2)c(F)c1 (configuration not stated) | 0.905 |  |
| COCC(=O)NC1CCCc2nc(-c3ccccc3)ncc21 (configuration not stated) |  | 0.853 |
| Cc1cc(C(=O)N2CCCC(CNS(=O)(=O)c3cccs3)C2)nn1C (configuration not stated) |  | 0.903 |
| O=C(CCC1CCN(Cc2cc3ccccc3s2)CC1)NCc1cccnc1 |  | 0.883 |
| COc1ccc(OCc2cc(C(=O)N3CCCC(O)C3)n[nH]2)c(Cl)c1 (configuration not stated) | 0.884 |  |
| COc1ccc(CC2(CO)CCN(Cc3ccc(OC(C)C)cc3)CC2)cc1 |  | 0.99 |
| CC(=O)C1(c2ccccc2)CCN(c2nncc(-c3ccccc3F)n2)CC1 |  | 0.698 |
| COc1cc(CN2CCCC(C(=O)c3ccc(Cl)cc3)C2)cc(OC)c1OC (configuration not stated) |  | 0.8 |
